Experimental data: PubChem BioAssay AID1671195 (Yale University, 2021)
Test: 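Knockdowns that increase or decrease uptake of fluorescent LDL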 (primary screen). System: human Huh7 hepatoma cells. Reagent: siRNA pool against human genes, 18 nM. Time to read-out: about 2 to 2.5 days of knockdown, then 8 h LDL uptake. Conditions: DiI-labelled LDL at 30 µg/ml for 8 h, in lipoprotein-deficient serum medium. Detection: 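Per-cell DiI-LDL intensity by automated imaging; well means scaled to the plate median and given as a robust z-score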. Scale: robust z-score: higher = more LDL uptake after knockdown. Active means: 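Active when two or more replicates show a robust z-score above 2 or below -2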.
Here is one part, drawn at random, of about 22,000 reagents tested. About 1,510 of all reagents (6.9%) were called active. 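Active includes knockdowns raising or lowering LDL uptake; positive z-scores mean more uptake, negative mean less.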 A number with no mark means an inactive call. The numbers tell different reagents against one gene apart.

no.	target	reagent	robust z-score, replicate 1	robust z-score, replicate 2	robust z-score, replicate 3
1	LOC401883 (retired record) (GeneID 401883)	1	-0.228	-0.481	-0.493
2	ECE2 (GeneID 9718)	1	1.67	0.98	1.26
3	ECE2 (GeneID 9718)	2	0.481	0.0382	-0.135
4	MC4R (GeneID 4160)	1	-0.952	-0.995	-1.16
5	ECHDC2 (GeneID 55268)	1	1.06	0.96	1.74
6	UBR1 (GeneID 197131)	1	0.163	1.33	0.324
7	CENPI (GeneID 2491)	1	1.13	-0.51	0.435
8	KRTAP1-5 (GeneID 83895)	1	1.3 (active)	2.05	2.3
9	FZD9 (GeneID 8326)	1	0.0671	0.31	0.961
10	ANO3 (GeneID 63982)	1	0.425	0.934	0.5
11	REEP4 (GeneID 80346)	1	1.82	1.67	0.922
12	TSLIG3B (GeneID 283742)	1	3.83 (active)	4.28	4.02
13	SLC18A1 (GeneID 6570)	1	-0.861	-0.676	-0.75
14	CACNB3 (GeneID 784)	1	1.63	0.697	1.36
15	TRIM47 (GeneID 91107)	1	3.01 (active)	3.26	4.86
16	OR6C70 (GeneID 390327)	1	0.452	0.482	0.396
17	SPINK1 (GeneID 6690)	1	-2.18 (active)	-1.9	-2.15
18	EPS8 (GeneID 2059)	1	-0.317	-0.474	-0.409
19	PCDH10 (GeneID 57575)	1	0.189	0.536	0.162
20	PLA2G2C (GeneID 391013)	1	1.54	1.39	0.797
21	MRPS12 (GeneID 6183)	1	-0.867	0.115	1.55
22	DMRT1 (GeneID 1761)	1	-0.105	0.113	-0.147
23	KEL (GeneID 3792)	1	-0.14	-0.543	-0.54
24	KLHDC8B (GeneID 200942)	1	0.572	-0.112	-0.195
25	YIPF3 (GeneID 25844)	1	0.754	0.957	-0.44
26	SP5 (GeneID 389058)	1	0.598	1.08	0.987
27	NOXRED1 (GeneID 122945)	1	0.733	0.482	0.742
28	GPR173 (GeneID 54328)	1	0.577	1.01	0.232
29	ICAM1 (GeneID 3383)	1	-0.426	-0.563	0.0761
30	FOXC1 (GeneID 2296)	1	0.0578	-0.537	0.75
31	IGHV3OR16-12 (GeneID 28304)	1	-1.09	-0.819	-0.848
32	LPCAT3 (GeneID 10162)	1	1.3	1.27	1.89
33	LOC441930 (retired record) (GeneID 441930)	1	0.757	-0.0931	0.244
34	ADAM33 (GeneID 80332)	1	-1.12	-1.95	-1.43
35	LOC389031 (retired record) (GeneID 389031)	1	-1.67	-1.98	-1.7
36	VWA5B1 (GeneID 127731)	1	-0.0148	-0.308	0.407
37	DCAF6 (GeneID 55827)	1	-0.0256	-1.68	-0.555
38	CC2D2B (GeneID 387707)	1	-1.33	-1.05	-1.09
39	POMT1 (GeneID 10585)	1	-1.19	-1.3	-0.655
40	NUP88 (GeneID 4927)	1	-0.886	-0.377	-1.12
41	IL16 (GeneID 3603)	1	-1.44	-1.08	-1.44
42	CCNT1 (GeneID 904)	1	0.379	0.744	1.36
43	SCAF1 (GeneID 58506)	1	0.462	0.0196	-0.368
44	PKP3 (GeneID 11187)	1	1.96	1.47	2.66
45	BAG2 (GeneID 9532)	1	0.0762	-0.461	-0.236
46	CRYGN (GeneID 155051)	1	-1.4	-0.227	-1.5
47	MAP3K3 (GeneID 4215)	1	0.687	0.178	0.431
48	PEDS1 (GeneID 387521)	1	0.629	0.33	0.397
49	CNOT3 (GeneID 4849)	1	-1.87	-1.75	-2.09
50	WASF2 (GeneID 10163)	1	1.1	1.13	1.62
51	FRS3 (GeneID 10817)	1	0.87	0.584	0.836
52	MXD3 (GeneID 83463)	1	-1.05	-0.893	-1.15
53	SVOP (GeneID 55530)	1	-0.478	-0.694	0.0553
54	CFAP61 (GeneID 26074)	1	-0.441	0.0365	1.27
55	EXTL2 (GeneID 2135)	1	0.138	0.0557	0.695
56	THAP7 (GeneID 80764)	1	0.232	-0.37	-0.845
57	LOC440484 (retired record) (GeneID 440484)	1	3.69 (active)	4.02	3.41
58	DDX21 (GeneID 9188)	1	-0.667	0.245	0.00366
59	GSDMC (GeneID 56169)	1	0.0532	-0.811	-0.374
60	KCNAB2 (GeneID 8514)	1	1.49	0.964	1.78
61	LOC392791 (retired record) (GeneID 392791)	1	0.691	1.18	0.982
62	TRPC5 (GeneID 7224)	1	1.56	1.84	2.11
63	PPIAP26 (GeneID 121981)	1	0.332	0.101	0.585
64	CXCR5 (GeneID 643)	1	1.21	0.832	0.742
65	VPS25 (GeneID 84313)	1	-2.29 (active)	-2.04	-2.22
66	DIO3OS (GeneID 64150)	1	-0.571	-1.01	-0.833
67	TEDC2-AS1 (GeneID 729652)	1	-1.19	-1	-0.737
68	JDP2 (GeneID 122953)	1	0.472	0.0829	0.22

No new results follow: 5 of the entries above.
no.	target	reagent	robust z-score, replicate 1	robust z-score, replicate 2	robust z-score, replicate 3
37	DCAF6 (GeneID 55827)	1	-0.0256	-1.68	-0.555
38	CC2D2B (GeneID 387707)	1	-1.33	-1.05	-1.09
39	POMT1 (GeneID 10585)	1	-1.19	-1.3	-0.655
40	NUP88 (GeneID 4927)	1	-0.886	-0.377	-1.12
41	IL16 (GeneID 3603)	1	-1.44	-1.08	-1.44
